Conditions in all cases: yeast three-hybrid, YBZ-1, SC-Leu-His + 0.5 mM 3-AT, 4 days
Assay [1] concerns the target T1, PUM1 PUF domain R1-QFR R2-VFQ R7-NPG S863Q + R864F + Q867R + N899V + Y900F + S1079N + N1080P + E1083G (UniProt Q14671).
T1 sequence: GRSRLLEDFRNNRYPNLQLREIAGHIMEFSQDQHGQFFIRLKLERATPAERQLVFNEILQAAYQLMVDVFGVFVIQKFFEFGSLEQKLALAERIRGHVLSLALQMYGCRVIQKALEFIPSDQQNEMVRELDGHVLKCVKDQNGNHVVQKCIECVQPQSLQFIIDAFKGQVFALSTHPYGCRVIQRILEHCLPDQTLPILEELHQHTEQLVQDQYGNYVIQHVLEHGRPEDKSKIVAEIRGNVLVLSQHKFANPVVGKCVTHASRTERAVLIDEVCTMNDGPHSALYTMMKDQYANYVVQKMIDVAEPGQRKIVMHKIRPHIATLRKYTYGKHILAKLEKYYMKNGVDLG

Assay [2] has as its target T2, PUM1 PUF domain R2-VFQ R3-THE R4-TFR N899V + Y900F + C935T + R936H + Q939E + N971T + H972F + Q975R (UniProt Q14671).
T2 sequence: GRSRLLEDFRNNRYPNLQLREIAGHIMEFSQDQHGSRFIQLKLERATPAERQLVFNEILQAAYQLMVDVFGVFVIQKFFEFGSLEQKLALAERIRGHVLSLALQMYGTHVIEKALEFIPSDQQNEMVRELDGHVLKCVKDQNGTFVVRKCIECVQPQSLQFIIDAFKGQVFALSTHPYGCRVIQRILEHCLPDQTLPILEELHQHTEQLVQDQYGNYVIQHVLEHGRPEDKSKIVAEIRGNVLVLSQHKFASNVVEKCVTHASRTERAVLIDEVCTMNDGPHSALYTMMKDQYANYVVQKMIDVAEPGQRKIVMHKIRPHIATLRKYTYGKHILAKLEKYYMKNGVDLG

Assay [3] deals with T3, PUM1 PUF domain R3-THE R4-TFR C935T + R936H + Q939E + N971T + H972F + Q975R (UniProt Q14671).
T3 sequence: T2 sequence with V72N, F73Y

Assay [4] addresses T4, PUM1 PUF domain R3-THE R4-TFR R7-NPG C935T + R936H + Q939E + N971T + H972F + Q975R + S1079N + N1080P + E1083G (Homo sapiens) (UniProt Q14671).
T4 sequence: T2 sequence with V72N, F73Y, S252N, N253P, E256G

Assay [5] addresses T5, PUM1 PUF domain R5-PHQ R6-SWD C1007P + R1008H + N1043S + Y1044W + Q1047D (UniProt Q14671).
T5 sequence: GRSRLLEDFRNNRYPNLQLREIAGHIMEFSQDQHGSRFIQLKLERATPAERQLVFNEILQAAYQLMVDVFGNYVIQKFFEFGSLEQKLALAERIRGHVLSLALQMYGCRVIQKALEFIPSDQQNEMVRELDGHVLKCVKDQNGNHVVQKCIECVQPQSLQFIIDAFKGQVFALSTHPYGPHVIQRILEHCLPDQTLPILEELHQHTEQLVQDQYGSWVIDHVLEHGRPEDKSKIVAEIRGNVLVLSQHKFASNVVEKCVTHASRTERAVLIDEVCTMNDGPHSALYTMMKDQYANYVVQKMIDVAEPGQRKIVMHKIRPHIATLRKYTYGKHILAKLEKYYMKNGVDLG

Assay [6] addresses T6, PUM1 PUF domain R3-THE R4-TFR C935T + R936H + Q939E + N971T + H972F + Q975R (Homo sapiens) (UniProt Q14671).
T6 sequence: T2 sequence with V72N, F73Y

Assay [7] concerns the target T7, PUM1 PUF domain R3-THE R4-TFR R7-NPG C935T + R936H + Q939E + N971T + H972F + Q975R + S1079N + N1080P + E1083G (UniProt Q14671).
T7 sequence: T2 sequence with V72N, F73Y, S252N, N253P, E256G

In assay [8] the target is T8, PUM1 PUF domain R6-SWD R7-NPG N1043S + Y1044W + Q1047D + S1079N + N1080P + E1083G (Homo sapiens) (UniProt Q14671).
T8 sequence: T5 sequence with P180C, H181R, S252N, N253P, E256G

These results are taken from PMC8384837.

Numbering of substitutions follows the chain as printed. Some of the results follow. For some of these results: At the low end of the ranking, values are background and their order means little. For some of these results: Construct or isoform of the protein are uncertain.

With “GGCUAGAACUAGUGGAUCCCCCGGCGCCCGGCGGCUCGAGCCCGGGUAAGAGUGAGUUGUCUGCAUGCCGCCGGGCGCCAUGCCUGCAGGUCGACUCUAGAAAACAUG”, the values for the binding signal (log2 enrichment (interaction score)) in assay [1], in assay [2] and in assay [3] were -5.4, -6.05 and < -7.59, respectively.
The corresponding values for “GGCUAGAACUAGUGGAUCCCCCGGCGCCCGGCGGCUCGAGCCCGGGUAAGGGUACGAAGUCUGCAUGCCGCCGGGCGCCAUGCCUGCAGGUCGACUCUAGAAAACAUG” are -3.52, -4.42 and < -6.29.
Taken in the same sequence, the figures for “GGCUAGAACUAGUGGAUCCCCCGGCGCCCGGCGGCUCGAGCCCGGGUAAGUGUGCGAAGUCUGCAUGCCGCCGGGCGCCAUGCCUGCAGGUCGACUCUAGAAAACAUG” were -6.49, -4.12 and -6.88.
With “GGCUAGAACUAGUGGAUCCCCCGGCGCCCGGCGGCUCGAGCCCGGGUAAGCCGACGUAGUCUGCAUGCCGCCGGGCGCCAUGCCUGCAGGUCGACUCUAGAAAACAUG”, the binding signal (log2 enrichment (interaction score)) in assay [1] was -4.59; in assay [2], -5.61; in assay [3], -7.36.
On to “GGCUAGAACUAGUGGAUCCCCCGGCGCCCGGCGGCUCGAGCCCGGGUAAGUAGAAGAAGUCUGCAUGCCGCCGGGCGCCAUGCCUGCAGGUCGACUCUAGAAAACAUG”, for which the binding signal (log2 enrichment (interaction score)) in assay [1] was -4.73; in assay [2], -5.22; in assay [3] it was -6.66; in assay [4], -0.93; in assay [5] it was -8.64.
Take “GGCUAGAACUAGUGGAUCCCCCGGCGCCCGGCGGCUCGAGCCCGGGUAAGUAGACAAAGUCUGCAUGCCGCCGGGCGCCAUGCCUGCAGGUCGACUCUAGAAAACAUG”: the binding signal (log2 enrichment (interaction score)) is -6.44 in assay [1], -5.28 in assay [2] and -6.61 in assay [3].
The corresponding values for “GGCUAGAACUAGUGGAUCCCCCGGCGCCCGGCGGCUCGAGCCCGGGUAAGACACAGUAGUCUGCAUGCCGCCGGGCGCCAUGCCUGCAGGUCGACUCUAGAAAACAUG” are -6.66, -4.77 and -6.55.
For the sequence “GGCUAGAACUAGUGGAUCCCCCGGCGCCCGGCGGCUCGAGCCCGGGUAAGUGUAAGUAGUCUGCAUGCCGCCGGGCGCCAUGCCUGCAGGUCGACUCUAGAAAACAUG”, the binding signal (log2 enrichment (interaction score)) in assay [1] was -6.06; in assay [2], -5.04; in assay [6], -1.27; in assay [7], -2.47; in assay [5], -6.92.
For “GGCUAGAACUAGUGGAUCCCCCGGCGCCCGGCGGCUCGAGCCCGGGUAAGGUUAAGAAGUCUGCAUGCCGCCGGGCGCCAUGCCUGCAGGUCGACUCUAGAAAACAUG”, the binding signal (log2 enrichment (interaction score)) in assay [1] was -7.43; in assay [2], -5.09; in assay [3], < -8.15; in assay [7] it was < -2.75.
In the case of “GGCUAGAACUAGUGGAUCCCCCGGCGCCCGGCGGCUCGAGCCCGGGUAAGUUGACAAAGUCUGCAUGCCGCCGGGCGCCAUGCCUGCAGGUCGACUCUAGAAAACAUG”, the binding signal (log2 enrichment (interaction score)) is -4.9 in assay [1]; -5.59 in assay [2]; -7.16 in assay [3]; -2.67 in assay [7]; < -8.91 in assay [5]; -0.45 in assay [8].
As to “GGCUAGAACUAGUGGAUCCCCCGGCGCCCGGCGGCUCGAGCCCGGGUAAGUUAACGAAGUCUGCAUGCCGCCGGGCGCCAUGCCUGCAGGUCGACUCUAGAAAACAUG”, the binding signal (log2 enrichment (interaction score)) was -5.44 in assay [1], -5.54 in assay [2], -7.46 in assay [3] and -2.6 in assay [7].
In the case of “GGCUAGAACUAGUGGAUCCCCCGGCGCCCGGCGGCUCGAGCCCGGGUAAGUGGAGAAAGUCUGCAUGCCGCCGGGCGCCAUGCCUGCAGGUCGACUCUAGAAAACAUG”, the binding signal (log2 enrichment (interaction score)) in assay [1] was -5.6; in assay [2] it was -5.3; in assay [3], -6.59; in assay [7], -2.12; in assay [5], -9.13.
The corresponding values for “GGCUAGAACUAGUGGAUCCCCCGGCGCCCGGCGGCUCGAGCCCGGGUAAGUCGCUGUAGUCUGCAUGCCGCCGGGCGCCAUGCCUGCAGGUCGACUCUAGAAAACAUG” are -6.42, -5.39, -7.04, -3.32 and -8.06.
Consider “GGCUAGAACUAGUGGAUCCCCCGGCGCCCGGCGGCUCGAGCCCGGGUAAGUGGACGUCGUCUGCAUGCCGCCGGGCGCCAUGCCUGCAGGUCGACUCUAGAAAACAUG”, for which the binding signal (log2 enrichment (interaction score)) in assay [1] is -5.83; in assay [2], -5.4; in assay [3], -7.15; in assay [4] it was -1.85; in assay [5] it was -8.12; in assay [8] it was -1.86.
For “GGCUAGAACUAGUGGAUCCCCCGGCGCCCGGCGGCUCGAGCCCGGGUAAGUUGAAAUAGUCUGCAUGCCGCCGGGCGCCAUGCCUGCAGGUCGACUCUAGAAAACAUG”, the binding signal (log2 enrichment (interaction score)) in assay [1] is -4.99; in assay [2] it was -5.66; in assay [3], -6.8; in assay [7], -2.67; in assay [5] it was -4.96.
Taken in the same sequence, the figures for “GGCUAGAACUAGUGGAUCCCCCGGCGCCCGGCGGCUCGAGCCCGGGUAAGUUUAAAGAGUCUGCAUGCCGCCGGGCGCCAUGCCUGCAGGUCGACUCUAGAAAACAUG” were -6.52, -5.21, -6.86, -2.36 and < -7.47.
Taken in the same sequence, the figures for “GGCUAGAACUAGUGGAUCCCCCGGCGCCCGGCGGCUCGAGCCCGGGUAAGUUGACAGAGUCUGCAUGCCGCCGGGCGCCAUGCCUGCAGGUCGACUCUAGAAAACAUG” were -7.51, -5.5, -7.08, -2.51 and -7.76.
For the sequence “GGCUAGAACUAGUGGAUCCCCCGGCGCCCGGCGGCUCGAGCCCGGGUAAGUGCACGUCGUCUGCAUGCCGCCGGGCGCCAUGCCUGCAGGUCGACUCUAGAAAACAUG”, the binding signal (log2 enrichment (interaction score)) in assay [1] was < -6.25; in assay [2], -5.41; in assay [3], -7.35; in assay [7], -2.58; in assay [5], -8.04; in assay [8] it was -1.6.
Turning to “GGCUAGAACUAGUGGAUCCCCCGGCGCCCGGCGGCUCGAGCCCGGGUAAGUUGAGGUCGUCUGCAUGCCGCCGGGCGCCAUGCCUGCAGGUCGACUCUAGAAAACAUG”, the binding signal (log2 enrichment (interaction score)) in assay [1] was -6.16; in assay [2], -5.38; in assay [3], -7.83; in assay [7], -3.8; in assay [5], -7.93.
With “GGCUAGAACUAGUGGAUCCCCCGGCGCCCGGCGGCUCGAGCCCGGGUAAGUUGGCGUAGUCUGCAUGCCGCCGGGCGCCAUGCCUGCAGGUCGACUCUAGAAAACAUG”, the binding signal (log2 enrichment (interaction score)) in assay [1] was -6.12; in assay [2], -5.55; in assay [3] it was -7.11; in assay [4] it was -1.69; in assay [5], -7.11; in assay [8] it was -0.37.
For the sequence “GGCUAGAACUAGUGGAUCCCCCGGCGCCCGGCGGCUCGAGCCCGGGUAAGUGGCUAAAGUCUGCAUGCCGCCGGGCGCCAUGCCUGCAGGUCGACUCUAGAAAACAUG”, the binding signal (log2 enrichment (interaction score)) in assay [1] was -6.16; in assay [2], -5.56; in assay [3], -6.11; in assay [7], -2.07; in assay [5], -8.6.
The corresponding values for “GGCUAGAACUAGUGGAUCCCCCGGCGCCCGGCGGCUCGAGCCCGGGUAAGUCGUAUUAGUCUGCAUGCCGCCGGGCGCCAUGCCUGCAGGUCGACUCUAGAAAACAUG” are -5.84, -5.46, -7.06, -2.14 and < -8.12.
Taken in the same sequence, the figures for “GGCUAGAACUAGUGGAUCCCCCGGCGCCCGGCGGCUCGAGCCCGGGUAAGUGUAAGUGGUCUGCAUGCCGCCGGGCGCCAUGCCUGCAGGUCGACUCUAGAAAACAUG” were -2.66, < -6.02, -6.27, -3.07 and < -7.69.
Consider “GGCUAGAACUAGUGGAUCCCCCGGCGCCCGGCGGCUCGAGCCCGGGUAAGUGUAAGCAGUCUGCAUGCCGCCGGGCGCCAUGCCUGCAGGUCGACUCUAGAAAACAUG”, for which the binding signal (log2 enrichment (interaction score)) in assay [1] is -5.85; in assay [2], -5.82; in assay [3] it was < -7.67; in assay [5] it was -7.95.
